In the supplement of paper PMC12823440, “Inhibitors supercharge kinase turnover through native proteolytic circuits” (Nature, 2025):
The other results are listed elsewhere or left out. Hit calls seldom repeat between salt and free forms of one compound.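 Kinases, fused to nanoluciferase, were expressed in K562 cells; luminescence was measured every 4 h from 2 to 18 h as percent of control (DMSO = 100%, positive control = 0%). A time point is decreased if signal falls significantly (2 sigma). Hits were called by the authors by a rule that is not shown; the count of time points alone does not decide it.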

Chains of the proteins cited; added tags and fusions are not shown. Lines headed by an entry give the natural chain unless they say otherwise; changes in a name come on top.
UniProt P48729: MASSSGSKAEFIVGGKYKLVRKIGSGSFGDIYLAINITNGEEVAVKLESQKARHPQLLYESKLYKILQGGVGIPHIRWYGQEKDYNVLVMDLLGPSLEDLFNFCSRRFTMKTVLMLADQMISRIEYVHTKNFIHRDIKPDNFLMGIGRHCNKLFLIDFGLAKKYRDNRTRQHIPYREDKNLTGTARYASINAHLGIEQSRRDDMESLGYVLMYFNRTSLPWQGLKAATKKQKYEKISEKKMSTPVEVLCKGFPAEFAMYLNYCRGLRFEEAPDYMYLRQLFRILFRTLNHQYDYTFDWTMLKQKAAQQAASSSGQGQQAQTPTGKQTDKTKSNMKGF
UniProt P48730: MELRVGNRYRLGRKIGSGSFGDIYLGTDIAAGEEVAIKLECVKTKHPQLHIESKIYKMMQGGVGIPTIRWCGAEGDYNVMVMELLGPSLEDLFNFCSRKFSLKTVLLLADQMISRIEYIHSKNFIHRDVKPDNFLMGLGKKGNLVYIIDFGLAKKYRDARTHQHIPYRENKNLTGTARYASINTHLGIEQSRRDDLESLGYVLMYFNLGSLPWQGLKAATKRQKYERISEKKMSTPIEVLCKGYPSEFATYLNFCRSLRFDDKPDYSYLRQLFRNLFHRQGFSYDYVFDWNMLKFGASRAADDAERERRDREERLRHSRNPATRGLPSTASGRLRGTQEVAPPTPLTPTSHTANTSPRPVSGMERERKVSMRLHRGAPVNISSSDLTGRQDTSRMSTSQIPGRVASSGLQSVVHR
UniProt Q08345: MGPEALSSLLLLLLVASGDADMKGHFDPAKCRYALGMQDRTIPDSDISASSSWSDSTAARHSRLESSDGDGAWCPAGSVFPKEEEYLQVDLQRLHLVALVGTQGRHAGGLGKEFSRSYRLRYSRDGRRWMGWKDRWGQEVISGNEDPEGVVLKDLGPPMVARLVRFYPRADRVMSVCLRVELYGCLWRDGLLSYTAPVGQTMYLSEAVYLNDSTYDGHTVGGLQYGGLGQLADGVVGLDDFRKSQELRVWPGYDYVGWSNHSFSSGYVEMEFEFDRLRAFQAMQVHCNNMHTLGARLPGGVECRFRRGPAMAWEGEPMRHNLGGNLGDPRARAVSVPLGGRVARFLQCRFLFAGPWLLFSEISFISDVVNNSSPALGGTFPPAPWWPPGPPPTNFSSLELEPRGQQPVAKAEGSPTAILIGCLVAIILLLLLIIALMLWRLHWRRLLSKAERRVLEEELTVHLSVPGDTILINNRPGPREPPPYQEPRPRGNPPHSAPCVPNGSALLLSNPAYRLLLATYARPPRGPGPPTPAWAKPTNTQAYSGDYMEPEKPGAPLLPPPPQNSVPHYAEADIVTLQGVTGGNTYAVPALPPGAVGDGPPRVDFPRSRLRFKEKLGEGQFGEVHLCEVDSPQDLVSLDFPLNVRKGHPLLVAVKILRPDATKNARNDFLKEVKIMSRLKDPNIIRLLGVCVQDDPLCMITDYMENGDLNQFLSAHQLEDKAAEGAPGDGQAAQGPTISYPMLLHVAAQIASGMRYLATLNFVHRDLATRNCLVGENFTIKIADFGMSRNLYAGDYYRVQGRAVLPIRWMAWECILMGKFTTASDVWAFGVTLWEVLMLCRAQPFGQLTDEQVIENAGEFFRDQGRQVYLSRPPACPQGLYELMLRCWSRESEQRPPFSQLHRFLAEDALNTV
UniProt Q9Y463, whole entry, looked up: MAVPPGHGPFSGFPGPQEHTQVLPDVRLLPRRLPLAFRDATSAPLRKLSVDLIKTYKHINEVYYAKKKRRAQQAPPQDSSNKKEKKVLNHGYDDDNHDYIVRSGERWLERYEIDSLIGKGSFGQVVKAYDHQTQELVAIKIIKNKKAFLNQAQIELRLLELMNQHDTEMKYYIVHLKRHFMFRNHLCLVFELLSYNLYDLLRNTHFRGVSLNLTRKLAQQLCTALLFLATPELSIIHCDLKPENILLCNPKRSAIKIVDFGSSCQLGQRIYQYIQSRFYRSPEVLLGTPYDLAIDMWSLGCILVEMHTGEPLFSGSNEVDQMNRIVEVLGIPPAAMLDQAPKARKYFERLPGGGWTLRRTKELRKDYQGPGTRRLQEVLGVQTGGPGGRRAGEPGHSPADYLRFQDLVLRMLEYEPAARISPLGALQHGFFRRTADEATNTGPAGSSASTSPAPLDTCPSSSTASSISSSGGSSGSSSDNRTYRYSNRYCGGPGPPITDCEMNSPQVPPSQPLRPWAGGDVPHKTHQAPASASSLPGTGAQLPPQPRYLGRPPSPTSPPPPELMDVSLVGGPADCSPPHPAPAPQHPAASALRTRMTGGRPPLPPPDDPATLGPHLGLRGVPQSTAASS
UniProt Q92630: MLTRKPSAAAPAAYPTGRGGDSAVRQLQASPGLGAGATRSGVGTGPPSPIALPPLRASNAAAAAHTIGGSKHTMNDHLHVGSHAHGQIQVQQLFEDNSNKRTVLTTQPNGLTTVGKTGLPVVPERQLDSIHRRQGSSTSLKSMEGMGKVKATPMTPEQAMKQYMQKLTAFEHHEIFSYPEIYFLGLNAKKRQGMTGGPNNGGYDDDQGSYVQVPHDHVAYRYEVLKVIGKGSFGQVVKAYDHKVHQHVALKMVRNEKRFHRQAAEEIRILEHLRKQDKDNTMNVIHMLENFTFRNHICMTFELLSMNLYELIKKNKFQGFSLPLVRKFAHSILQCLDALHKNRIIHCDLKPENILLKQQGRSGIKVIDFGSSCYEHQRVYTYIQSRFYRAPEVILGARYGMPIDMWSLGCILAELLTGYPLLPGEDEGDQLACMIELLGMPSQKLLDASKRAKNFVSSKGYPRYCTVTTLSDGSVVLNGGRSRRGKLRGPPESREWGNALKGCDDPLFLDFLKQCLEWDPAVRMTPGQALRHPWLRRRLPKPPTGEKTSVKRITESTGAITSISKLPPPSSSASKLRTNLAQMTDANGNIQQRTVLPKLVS
UniProt P21860, whole entry: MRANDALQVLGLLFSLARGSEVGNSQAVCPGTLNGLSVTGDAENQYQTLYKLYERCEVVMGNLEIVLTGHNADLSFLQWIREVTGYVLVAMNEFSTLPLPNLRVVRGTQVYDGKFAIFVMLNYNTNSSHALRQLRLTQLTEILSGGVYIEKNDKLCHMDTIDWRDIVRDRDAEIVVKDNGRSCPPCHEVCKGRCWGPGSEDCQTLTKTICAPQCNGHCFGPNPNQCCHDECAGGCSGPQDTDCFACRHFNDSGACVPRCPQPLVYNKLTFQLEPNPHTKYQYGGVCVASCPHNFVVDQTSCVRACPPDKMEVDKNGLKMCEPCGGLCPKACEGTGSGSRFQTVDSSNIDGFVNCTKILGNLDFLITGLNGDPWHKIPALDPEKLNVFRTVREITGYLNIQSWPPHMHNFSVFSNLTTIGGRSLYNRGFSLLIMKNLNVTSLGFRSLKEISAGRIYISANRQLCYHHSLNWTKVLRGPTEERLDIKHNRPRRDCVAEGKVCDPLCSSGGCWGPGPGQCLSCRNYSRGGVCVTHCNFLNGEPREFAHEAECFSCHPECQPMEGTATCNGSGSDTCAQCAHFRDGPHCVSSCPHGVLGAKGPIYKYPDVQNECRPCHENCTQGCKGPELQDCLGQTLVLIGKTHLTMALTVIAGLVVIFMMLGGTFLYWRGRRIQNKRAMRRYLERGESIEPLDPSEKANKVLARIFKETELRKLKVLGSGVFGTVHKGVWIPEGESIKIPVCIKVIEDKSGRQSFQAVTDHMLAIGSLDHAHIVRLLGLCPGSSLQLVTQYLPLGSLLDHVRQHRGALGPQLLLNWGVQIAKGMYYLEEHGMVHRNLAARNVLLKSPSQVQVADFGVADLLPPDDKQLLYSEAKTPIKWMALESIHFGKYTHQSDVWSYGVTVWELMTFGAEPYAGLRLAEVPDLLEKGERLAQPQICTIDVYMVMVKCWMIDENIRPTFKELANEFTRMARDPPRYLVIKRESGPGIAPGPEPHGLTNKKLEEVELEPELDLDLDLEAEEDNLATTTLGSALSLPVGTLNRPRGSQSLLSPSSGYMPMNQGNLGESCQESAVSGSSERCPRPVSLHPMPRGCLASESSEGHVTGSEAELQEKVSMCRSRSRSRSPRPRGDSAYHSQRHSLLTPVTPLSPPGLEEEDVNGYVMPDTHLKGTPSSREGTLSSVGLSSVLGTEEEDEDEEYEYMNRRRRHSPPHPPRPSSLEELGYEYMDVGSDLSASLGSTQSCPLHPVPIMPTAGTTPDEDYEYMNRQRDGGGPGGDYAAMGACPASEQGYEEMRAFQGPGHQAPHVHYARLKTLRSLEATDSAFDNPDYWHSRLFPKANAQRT
UniProt Q15303, whole entry R711C: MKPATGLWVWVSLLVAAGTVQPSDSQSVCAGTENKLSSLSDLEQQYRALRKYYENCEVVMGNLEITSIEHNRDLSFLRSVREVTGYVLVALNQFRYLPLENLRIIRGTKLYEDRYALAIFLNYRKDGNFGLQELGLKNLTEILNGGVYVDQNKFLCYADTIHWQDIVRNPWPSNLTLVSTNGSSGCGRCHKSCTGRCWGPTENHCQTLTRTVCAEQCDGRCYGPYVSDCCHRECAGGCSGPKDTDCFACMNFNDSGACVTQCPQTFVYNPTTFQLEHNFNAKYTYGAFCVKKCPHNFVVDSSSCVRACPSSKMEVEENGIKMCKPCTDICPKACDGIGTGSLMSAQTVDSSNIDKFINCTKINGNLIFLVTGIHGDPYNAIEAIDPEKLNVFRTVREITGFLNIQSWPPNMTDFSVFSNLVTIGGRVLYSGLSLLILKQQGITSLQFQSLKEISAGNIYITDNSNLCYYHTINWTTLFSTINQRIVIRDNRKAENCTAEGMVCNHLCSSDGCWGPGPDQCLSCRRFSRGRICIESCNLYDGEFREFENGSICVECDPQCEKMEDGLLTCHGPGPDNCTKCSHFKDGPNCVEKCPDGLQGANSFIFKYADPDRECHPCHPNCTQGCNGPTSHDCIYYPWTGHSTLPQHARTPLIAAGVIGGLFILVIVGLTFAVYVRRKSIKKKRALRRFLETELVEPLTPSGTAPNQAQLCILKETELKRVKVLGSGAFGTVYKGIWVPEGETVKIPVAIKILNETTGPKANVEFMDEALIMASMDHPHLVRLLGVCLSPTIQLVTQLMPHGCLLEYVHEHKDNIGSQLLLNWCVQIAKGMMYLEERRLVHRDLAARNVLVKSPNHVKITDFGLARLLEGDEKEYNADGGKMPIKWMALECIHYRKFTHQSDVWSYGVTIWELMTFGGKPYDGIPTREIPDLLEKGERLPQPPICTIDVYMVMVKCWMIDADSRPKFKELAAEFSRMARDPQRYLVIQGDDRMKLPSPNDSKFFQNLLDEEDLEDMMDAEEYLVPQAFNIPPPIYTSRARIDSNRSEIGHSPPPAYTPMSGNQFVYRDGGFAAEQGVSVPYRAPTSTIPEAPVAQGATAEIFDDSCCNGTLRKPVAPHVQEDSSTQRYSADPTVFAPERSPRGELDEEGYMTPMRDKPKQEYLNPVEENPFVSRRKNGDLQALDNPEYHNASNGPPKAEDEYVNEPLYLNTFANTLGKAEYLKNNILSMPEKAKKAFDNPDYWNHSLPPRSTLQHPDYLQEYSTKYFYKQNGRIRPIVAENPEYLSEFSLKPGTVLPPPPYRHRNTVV
UniProt P21802, whole entry, looked up: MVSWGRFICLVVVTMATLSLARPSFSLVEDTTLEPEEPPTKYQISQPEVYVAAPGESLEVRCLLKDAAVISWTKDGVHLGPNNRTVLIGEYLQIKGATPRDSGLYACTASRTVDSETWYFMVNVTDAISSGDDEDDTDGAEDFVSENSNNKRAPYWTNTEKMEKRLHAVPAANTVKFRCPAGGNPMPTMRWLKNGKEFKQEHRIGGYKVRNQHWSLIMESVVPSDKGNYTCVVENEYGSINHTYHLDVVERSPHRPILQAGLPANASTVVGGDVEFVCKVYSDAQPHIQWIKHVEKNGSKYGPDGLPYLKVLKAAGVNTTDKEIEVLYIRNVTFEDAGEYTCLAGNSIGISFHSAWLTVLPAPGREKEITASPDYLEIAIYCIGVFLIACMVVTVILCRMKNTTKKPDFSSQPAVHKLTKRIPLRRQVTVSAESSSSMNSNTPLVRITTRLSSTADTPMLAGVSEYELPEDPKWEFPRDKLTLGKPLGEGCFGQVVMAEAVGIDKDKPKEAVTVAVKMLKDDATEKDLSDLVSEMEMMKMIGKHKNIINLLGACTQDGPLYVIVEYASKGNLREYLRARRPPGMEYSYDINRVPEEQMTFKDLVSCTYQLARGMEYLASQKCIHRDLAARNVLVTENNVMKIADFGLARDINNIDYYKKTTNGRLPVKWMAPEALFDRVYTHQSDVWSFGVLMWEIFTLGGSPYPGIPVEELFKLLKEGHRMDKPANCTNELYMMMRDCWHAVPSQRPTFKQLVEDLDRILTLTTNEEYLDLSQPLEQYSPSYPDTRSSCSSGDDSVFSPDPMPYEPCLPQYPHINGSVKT

Assays:
Experiment in all cases: number of time points (of 5) at which kinase-Nluc abundance scored as decreased, DMSO-normalised (count); higher = more persistent destabilization
Details in all cases: K562; 2-18 h
[1] = target: CSNK1A1 (UniProt P48729)
[2] = target: CSNK1D (UniProt P48730)
[3] = target: DDR1 (UniProt Q08345)
[4] = target: DYRK1B (UniProt Q9Y463)
[5] = target: DYRK2 (UniProt Q92630)
[6] = target: EGFR (UniProt P00533)
[7] = target: EGFR_G719S (UniProt P00533)
[8] = target: EGFR_G719S_T790M (UniProt P00533)
[9] = target: EGFR_L718V (UniProt P00533)
[10] = target: EGFR_L858R (UniProt P00533)
[11] = target: EGFR_L861Q (UniProt P00533)
[12] = target: EGFR_T790M (UniProt P00533)
[13] = target: EPHA2 (UniProt P29317)
[14] = target: ERBB3 (UniProt P21860)
[15] = target: ERBB4_R711C (clone: ERBB4_mut) (UniProt Q15303)
[16] = target: ERN1 (UniProt O75460)
[17] = target: FGFR1 (UniProt P11362)
[18] = target: FGFR2 (UniProt P21802)
[19] = target: FGFR3 (UniProt P22607)
[20] = target: FGR (UniProt P09769)

Measured: number of time points

CCOC(=O)c1c(C)[nH]c(C=C2C(=O)Nc3ccccc32)c1C (10 µM)
0: all assays above

Nc1[nH]nc2nnc(-c3c(-c4ccccc4)nn4ccccc34)cc12 (10 µM)
0: all assays above

N#Cc1cnc(Nc2cc(NC[C@H]3CNCCO3)c(C(F)(F)F)cn2)cn1 (10 µM)
4: [6]
3: [11]
2: [7] | [10] | [14]
1: [8] | [13] | [15] | [16] | [18] | [19]
0: all other assays above

Cc1ncsc1-c1ccc(CNC(=O)[C@@H]2C[C@@H](O)CN2C(=O)[C@@H](NC(=O)COCCOc2ccc(-c3cc(Nc4ccc(OC(F)(F)F)cc4)ncn3)cc2)C(C)(C)C)cc1 (2.5 µM)
2: [3] | [7] | [11] | [15] | [18]
3: [5] | [14]
0: [6] | [12] | [13] | [19] | [20]
1: all other assays above

COc1ccc2nc3ccc(OC)cc3c(SCCCN)c2c1 (10 µM)
3: [10] | [11] | [16]
2: [3] | [4] | [9] | [18] | [20]
0: all other assays above

Fc1ccc(-c2nc3n(c2-c2ccncc2)CCS3)cc1 (10 µM)
0: all assays above

COc1c(O)cc(O)c2c(=O)cc(-c3ccccc3)oc12 [Wogonin] (10 µM)
0: all assays above

COc1cc(Nc2ccnc3ccc(Br)cc23)cc(OC)c1OC (2.5 µM)
1: [5] | [10] | [15]
0: all other assays above

CCOC(=O)c1c(N2CCc3ccc(OC)cc3C2)oc(C=C2C=Nc3ncccc32)c1O (10 µM)
0: all assays above

Cn1cc(C2=C(c3ccc(Cl)cc3Cl)C(=O)NC2=O)c2ccccc21 (10 µM)
0: all assays above

Pulled by compound from above (2):
COc1cc(Nc2ccnc3ccc(Br)cc23)cc(OC)c1OC (2.5 µM)
1: [5] | [10] | [15]
0: all other assays above

COc1c(O)cc(O)c2c(=O)cc(-c3ccccc3)oc12 [Wogonin] (10 µM)
0: all assays above

Additional entries follow.

CC(=O)Nc1nc(C)c(-c2cc(C)c3c(c2)CN([C@@H](C)C2CC2)C3=O)s1 (10 µM)
0: all assays above

CCCS(=O)(=O)N[C@H]1C[C@@H](N(C)c2ncnc3[nH]ccc23)C1 [Abrocitinib] (10 µM)
0: all assays above

CNCCOc1ccccc1C1(Nc2nccn(-c3cc(C(=O)NC4CC4)cc(F)c3C)c2=O)CC1 (10 µM)
0: all assays above

CNCc1cc(Oc2ccc3c(ccn3C(=O)Nc3cc(C(F)(F)F)n(C)n3)c2)ncn1 [Acrizanib] (10 µM)
0: all assays above

CC1=C(C#N)C(c2ccc3[nH]nc(C)c3c2)C(C#N)=C(C)N1 (10 µM)
0: all assays above

O=C1OC(COc2ccccc2[N+](=O)[O-])CC1Cc1ccccc1 (stereo not given) (10 µM)
0: all assays above

O=C(Nc1ccnc(NC(=O)C2CC2)c1)c1c(Cl)cccc1Cl (10 µM)
1: [11]
2: [14] | [15]
3: [5] | [18]
0: all other assays above
